Laboratory results reported in patent publication US12173088B2, “Anti-microbial peptides” (priority 2018, dated 2024).
Square brackets hold non-standard residues; d marks the D form. Peptide text beside a SMILES is read from it.

Tested on: human red blood cells (hRBCs)
Test: Hemolytic assay
Format: cell-based
Details: ratio between HL50 and MIC (S. aureus USA300)
Description: Briefly, human red blood cells (hRBCs) were washed three times with phosphate buffer saline (PBS) and diluted to a 2% solution (v/v). After peptide treatment, incubation at 37° C. for one hour, and centrifugation at 5000 rpm for 10 minutes, aliquots of the supernatant were carefully transferred to a fresh 96-well microplate. The amount of hemoglobin released was measured at 545 nm. The percent lysis was calculated by assuming 100% release when human blood cells were treated with 2% Triton™ X-100, and 0% release when incubated with PBS buffer. The peptide concentration that caused 50% lysis of hRBCs is defined as HL50. The cell selectivity index (CSI) was calculated as the ratio between HL50 and MIC of the corresponding peptide against a select pathogenic species.
Hemolytic assays of peptides were performed as described (Mishra, et al. (2017) Acta Biomater., 49:316-328). Briefly, human red blood cells (hRBCs) obtained from UNMC Blood Bank. The blood washed 3× with isotonic saline (0.9% NaCl) and diluted to 2% blood cells (v/v). Peptide horine and verine at various concentrations were added into the 2% blood cells and incubated at 37° C. for 1 hour. Post incubation the plates were spun at 2000 rpm for 10 minutes, aliquots of the supernatant were carefully transferred to a fresh 96-well microplate. The amount of cells lysed is proportional to the hemoglobin released and measured at 545 nm using a ChroMate® microplate reader. The percent lysis was calculated by assuming 100% release when human blood cells were treated with 1% Triton™ X-100, and 0% release when incubated with PBS. The peptide concentration that caused 50% lysis of hRBCs is defined as HL50.

| Compound | CSI, cell selectivity index |
| --- | --- |
| CC(C)C[C@H](NC(=O)[C@H](CC(C)C)NC(=O)[C@H](CCCCN)NC(=O)[C@H](CC(C)C)NC(=O)CNC(=O)[C@H](CC(C)C)NC(=O)[C@H](CO)NC(=O)[C@H](CC(C)C)NC(=O)[C@H](CC(C)C)NC(=O)[C@H](CC(C)C)NC(=O)[C@H](CO)NC(=O)[C@H](CC(C)C)NC(=O)CN)C(N)=O [DFT503] (H-GLSLLLSLGLKLL-NH2; N-terminus and C-terminus assumed) | >192 |
| CC(C)C[C@@H](NC(=O)[C@@H](CC(C)C)NC(=O)[C@@H](CCCCN)NC(=O)[C@@H](CC(C)C)NC(=O)CNC(=O)[C@@H](CC(C)C)NC(=O)[C@@H](CO)NC(=O)[C@@H](CC(C)C)NC(=O)[C@@H](CC(C)C)NC(=O)[C@@H](CC(C)C)NC(=O)[C@@H](CO)NC(=O)[C@@H](CC(C)C)NC(=O)CN)C(N)=O [DFT503d] (H-G[dL][dS][dL][dL][dL][dS][dL]G[dL][dK][dL][dL]-NH2; N-terminus and C-terminus assumed) | >192 |
| CC(C)C[C@H](NC(=O)[C@H](CC(C)C)NC(=O)[C@H](CCCCN)NC(=O)[C@H](CC(C)C)NC(=O)CNC(=O)[C@H](CC(C)C)NC(=O)[C@H](CO)NC(=O)[C@H](CC(C)C)NC(=O)[C@H](CC(C)C)NC(=O)[C@H](CO)NC(=O)[C@H](CC(C)C)NC(=O)[C@H](CC(C)C)NC(=O)CN)C(N)=O [DFT531] (H-GLLSLLSLGLKLL-NH2; N-terminus and C-terminus assumed) | 9.0 |
| CC(C)C[C@H](NC(=O)[C@H](CC(C)C)NC(=O)[C@H](CCCCN)NC(=O)[C@H](CC(C)C)NC(=O)CNC(=O)[C@H](CC(C)C)NC(=O)[C@H](CO)NC(=O)[C@H](CC(C)C)NC(=O)[C@H](CC(C)C)NC(=O)[C@H](CC(C)C)NC(=O)[C@H](CO)NC(=O)[C@H](CC(C)C)NC(=O)[C@@H](N)CCCCN)C(N)=O [DFT560] (H-KLSLLLSLGLKLL-NH2; N-terminus and C-terminus assumed) | 16 |
| CC(C)C[C@H](NC(=O)[C@H](CC(C)C)NC(=O)[C@H](CCCCN)NC(=O)[C@H](CC(C)C)NC(=O)CNC(=O)[C@H](CC(C)C)NC(=O)[C@H](CO)NC(=O)[C@H](CC(C)C)NC(=O)[C@H](CC(C)C)NC(=O)[C@H](CC(C)C)NC(=O)[C@H](CCCCN)NC(=O)[C@H](CC(C)C)NC(=O)CN)C(N)=O [DFT561] (H-GLKLLLSLGLKLL-NH2; N-terminus and C-terminus assumed) | >192 |
| CC(C)C[C@@H](NC(=O)[C@@H](CC(C)C)NC(=O)[C@@H](CCCCN)NC(=O)[C@@H](CC(C)C)NC(=O)CNC(=O)[C@@H](CC(C)C)NC(=O)[C@@H](CO)NC(=O)[C@@H](CC(C)C)NC(=O)[C@@H](CC(C)C)NC(=O)[C@@H](CC(C)C)NC(=O)[C@@H](CCCCN)NC(=O)[C@@H](CC(C)C)NC(=O)CN)C(N)=O [DFT561d] (H-G[dL][dK][dL][dL][dL][dS][dL]G[dL][dK][dL][dL]-NH2; N-terminus and C-terminus assumed) | >192 |
| CC(C)C[C@H](NC(=O)[C@H](CC(C)C)NC(=O)[C@H](CCCCN)NC(=O)[C@H](CC(C)C)NC(=O)CNC(=O)[C@H](CC(C)C)NC(=O)[C@H](CCCCN)NC(=O)[C@H](CC(C)C)NC(=O)[C@H](CC(C)C)NC(=O)[C@H](CC(C)C)NC(=O)[C@H](CCCCN)NC(=O)[C@H](CC(C)C)NC(=O)CN)C(N)=O [DFT564] (H-GLKLLLKLGLKLL-NH2; N-terminus and C-terminus assumed) | <16 |
| CC(C)C[C@H](NC(=O)[C@H](CC(C)C)NC(=O)[C@H](CCCCN)NC(=O)[C@H](CC(C)C)NC(=O)CNC(=O)[C@H](CC(C)C)NC(=O)[C@H](CCCCN)NC(=O)[C@H](CC(C)C)NC(=O)[C@H](CC(C)C)NC(=O)[C@H](CC(C)C)NC(=O)[C@H](CCCCN)NC(=O)[C@H](CC(C)C)NC(=O)[C@@H](N)CCCCN)C(N)=O [DFT565] (H-KLKLLLKLGLKLL-NH2; N-terminus and C-terminus assumed) | 64 |
| CC(C)C[C@H](NC(=O)[C@H](CC(C)C)NC(=O)[C@H](CCCCN)NC(=O)CNC(=O)[C@H](CC(C)C)NC(=O)[C@H](CC(C)C)NC(=O)[C@H](CO)NC(=O)[C@H](CC(C)C)NC(=O)[C@H](CC(C)C)NC(=O)[C@H](CO)NC(=O)[C@H](CC(C)C)NC(=O)[C@H](CC(C)C)NC(=O)CN)C(N)=O [DFTamP1] (H-GLLSLLSLLGKLL-NH2; N-terminus assumed) | 3.2 |
